Here are results for one substance from US8790883B2, “Methods of identifying NF-κB inhibitors” (priority 2003, dated 2014).

This assay has as its system LPS-induced NF-κB activation. The experiment in a line: More stringent NF-κB inhibition assay, second procedure: peptide internalization, washing, 24 h growth, then LPS. The note with it: 10 μM peptide. It is filed as cell-based, murine. Here is the method:
Left panels show a helical wheel diagram of CC2 (A) and LZ (B) peptides. The view is from the top the molecule. The (a) through (g) positions, which are an essential feature of coiled coil sequence (Vinson, 2002, Mol. Cell. Biol.) represent sequential positions in each peptide sequence. The first (a) and fourth (d) positions that are generally occupied by hydrophobic amino acids constitute the hydrophobic core for parallel as well as antiparallel-coiled coils. […] NF-κB activity was measured using the β-galactosidase assay. […]
(A) Sequence alignment of the NEMO-derived LZ (residues 301-336 of SEQ ID NO: 12) and the GCN4 peptides (residues 23-55 of SEQ ID NO:8). […] NF-κB activity was measured using the b-galactosidase assay. […]

As for “B-CRQIKIWFQNRRMKWKKSKGMQRMKQLEDKVEELLSKNYHLENEVARLKKLVGER (BODIPY label) [BODIPY-Ant-GCN4 (WT), reference compound]”, the “Effect on LPS-induced NF-κB activation” value is reported as “no ability to inhibit NF-κB activation”.
